# Results from one PubChem assay

Source: PubChem BioAssay AID1053133 (Broad Institute, 2014).

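Plate-reader measure of the Venus reporter marking one vaccinia stage in infected cells (the cell line is not named here); read time unknown. The test concentration is not given here. Percent change in Venus reporter signal; lower (more negative) values mean stronger inhibition of that viral stage.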

Values are in %. The controls that fix the scale are not given here. Common to all entries: measured here: Venus reporter, other viral stage. Part of the compounds only, not a random draw; the main read-out is not listed here.

structure,activity change (Venus) (%)
CC(C)CC#Cc1ccc2c(c1)O[C@H](CN(C)S(=O)(=O)c1ccc(F)cc1)[C@H](C)CN([C@H](C)CO)S2(=O)=O,-54.05
COc1cccc(-c2ccc3c(c2)[C@@H]2[C@@H](CCN2C(=O)NC2CCCCC2)[C@@H](CO)N3C)c1,-27.98
CO[C@@H]1CN(C)C(=O)c2cc(NC(=O)Nc3cccc(Cl)c3)ccc2OC[C@@H](C)NC[C@@H]1C,-21.62
C[C@@H]1CN([C@@H](C)CO)C(=O)Cc2cc(NC(=O)C3CCCCC3)ccc2O[C@H]1CN(C)Cc1ccc(C(F)(F)F)cc1,-57.97
C[C@H](CO)N1C[C@H](C)[C@@H](CN(C)Cc2ccc(C(F)(F)F)cc2)Oc2ccc(NC(=O)Nc3ccc(C(F)(F)F)cc3)cc2CC1=O,-17.93
C[C@@H]1CN([C@H](C)CO)S(=O)(=O)c2ccc(C#CCN(C)C)cc2O[C@H]1CN(C)Cc1ccccc1,-28.86
COc1ccc2c3c(n(C)c2c1)[C@@H](CO)NCC31CCN(Cc2ccc(-c3ccccn3)cc2)CC1,-47.06
C[C@@H]1CN([C@@H](C)CO)C(=O)c2c(c3ccccc3n2C)-c2ccccc2CO[C@@H]1CN(C)C(=O)Nc1cccc(C(F)(F)F)c1,-34.59
C[C@H](CO)N1C[C@H](C)[C@@H](CN(C)C(=O)N[C@H](C)c2ccccc2)OCc2ccccc2-c2c(n(C)c3ccccc23)C1=O,-49.43
C[C@@H]1CN([C@H](C)CO)C(=O)Cc2cc(NC(=O)c3ccncc3)ccc2O[C@H]1CN(C)Cc1ccc(C(F)(F)F)cc1,-36.41
O=C(C1CCC1)N1CCCCN2[C@H](CO)[C@@H](c3ccc(C#CC4CCCC4)cc3)[C@H]2C1,-17.72
CN1CCCCN2[C@H](C1)[C@@H](c1ccc(C#Cc3ccccc3F)cc1)[C@@H]2CO,-88.05
C[C@H](CO)N1C[C@H](C)[C@H](CN(C)S(=O)(=O)c2cccc(F)c2)Oc2ncc(C#Cc3cccc(F)c3)cc2C1=O,-39.74
CCc1cnc(N2[C@@H](C#N)[C@H](c3ccc(C#Cc4ccccc4F)cc3)[C@@H]2CO)s1,-37.12
C[C@@H]1CN([C@@H](C)CO)S(=O)(=O)c2ccc(/C=C/c3ccccc3)cc2O[C@@H]1CN(C)C(=O)c1ccc2c(c1)OCO2,-35.71
C[C@H]1CN([C@@H](C)CO)C(=O)c2cccc(NS(=O)(=O)c3ccccc3)c2O[C@H]1CN(C)Cc1ccc(-c2ccccc2)cc1,-40.47
COC(=O)[C@H]1[C@H](CO)[C@H]2Cn3c(ccc(-c4cccc(F)c4)c3=O)[C@H]2N1CC1CCCC1,-13.08
COc1ccc(CN(C)C[C@@H]2Oc3ccc(NC(=O)Nc4ccc(C(F)(F)F)cc4)cc3C(=O)N([C@H](C)CO)C[C@@H]2C)cc1,-37.01
O=C(c1ccc2c(c1)OCO2)N1CC(=O)N2[C@H](C1)[C@@H](c1ccc(C#CCC3CCCC3)cc1)[C@@H]2CO,-86.23
C[C@@H]1CN([C@@H](C)CO)S(=O)(=O)c2ccc(/C=C/c3ccccc3)cc2O[C@@H]1CN(C)C(=O)Nc1cccc(F)c1,-58.31
C[C@@H]1CN([C@@H](C)CO)C(=O)Cc2cc(NS(=O)(=O)c3cccs3)ccc2O[C@H]1CN(C)CC1CCCCC1,-40.45
Cc1ccccc1S(=O)(=O)N1CCCCN2[C@H](CO)[C@@H](c3ccc(C#CCN(C)C)cc3)[C@@H]2C1,-26.77
C[C@H]1CCCCO[C@@H](CN(C)Cc2ccc3c(c2)OCO3)[C@@H](C)CN([C@@H](C)CO)C(=O)c2cc(NS(=O)(=O)c3ccc(F)cc3)ccc2O1,-40.44
COc1ccccc1NC(=O)N1CC(=O)N2[C@H](CO)[C@@H](c3ccc(-c4cccc(C)c4)cc3)[C@H]2C1,-24.15
COc1ccccc1CN1[C@@H]2CN(C(=O)C3CCCCC3)c3ccccc3[C@@H]2[C@@H]1CO,-54.55
O=C(Nc1ccccc1)N1CC(=O)N2[C@H](C1)[C@@H](c1ccc(C#CC3CCCC3)cc1)[C@@H]2CO,-64.13
COc1ccc(NC(=O)N(C)C[C@@H]2Oc3cc(C#CCC(C)C)ccc3S(=O)(=O)N([C@H](C)CO)C[C@@H]2C)cc1,-57.69
C[C@H](CO)N1C[C@H](C)[C@H](CN(C)Cc2ccc(Cl)c(Cl)c2)Oc2ccc(NC(=O)Nc3ccc(C(F)(F)F)cc3)cc2CC1=O,-31.11
Cc1ccc(-c2ccc3c(c2)O[C@H](CN(C)Cc2cncnc2)[C@@H](C)CN([C@@H](C)CO)S3(=O)=O)cc1,-53.6

For reference, 2 entries once more:

structure	activity change (Venus) (%)
CCc1cnc(N2[C@@H](C#N)[C@H](c3ccc(C#Cc4ccccc4F)cc3)[C@@H]2CO)s1	-37.12
C[C@H](CO)N1C[C@H](C)[C@H](CN(C)Cc2ccc(Cl)c(Cl)c2)Oc2ccc(NC(=O)Nc3ccc(C(F)(F)F)cc3)cc2CC1=O	-31.11